Consider two molecules from patent US20170234870A1.

Chains of the proteins cited; added tags and fusions are not shown. Lines headed by an entry give the natural chain unless they say otherwise; changes in a name come on top.
UniProt P62873: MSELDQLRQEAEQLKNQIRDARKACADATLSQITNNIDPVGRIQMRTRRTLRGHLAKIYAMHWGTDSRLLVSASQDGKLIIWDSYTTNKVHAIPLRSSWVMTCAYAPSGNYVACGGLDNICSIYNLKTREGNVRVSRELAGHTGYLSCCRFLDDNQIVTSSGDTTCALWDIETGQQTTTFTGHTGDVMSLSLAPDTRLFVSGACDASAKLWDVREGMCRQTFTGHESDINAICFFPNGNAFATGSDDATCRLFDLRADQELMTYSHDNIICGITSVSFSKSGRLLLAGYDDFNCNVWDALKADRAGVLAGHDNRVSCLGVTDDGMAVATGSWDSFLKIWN

For test [1], the target named is Gβ1 / Rluc F2-Gγ5 dimer (untagged Gβ1 with Gγ5 tagged at its N-terminus with residues 111 to 311 of RlucII) (UniProt P62873). In words: Rluc protein complementation assay in HEK293 cells expressing TPαR, Gβ1 and Gα11.
Test [2] deals with Gβ1 / GFP10-Gγ5 dimer (untagged Gβ1 with Gγ5 tagged at its N-terminus with GFP10) (UniProt P62873). In words: BRET dose-response in HEK293 cells with TPαR and Gαq, U46619. (In BRET a luciferase serves as donor, and the signal depends on an acceptor being close.)

No constants are given. Whether binding was seen depends on the method and setting. Some results given as binding are weak or reduced against the parent protein; the word gives no strength. Tags and fused reporters may be left off the sequences shown.

B1: GRK2-Rluc F1 (GRK2 tagged at its C-terminus with residues 1 to 110 of RlucII) (protein)
chain: MADLEAVLADVSYLMAMEKSKATPAARASKKILLPEPSIRSVMQKYLEDRGEVTFEKIFSQKLGYLLFRDFCLNHLEEARPLVEFYEEIKKYEKLETEEERVARSREIFDSYIMKELLACSHPFSKSATEHVQGHLGKKQVPPDLFQPYIEEICQNLRGDVFQKFIESDKFTRFCQWKNVELNIHLTMNDFSVHRIIGRGGFGEVYGCRKADTGKMYAMKCLDKKRIKMKQGETLALNERIMLSLVSTGDCPFIVCMSYAFHTPDKLSFILDLMNGGDLHYHLSQHGVFSEADMRFYAAEIILGLEHMHNRFVVYRDLKPANILLDEHGHVRISDLGLACDFSKKKPHASVGTHGYMAPEVLQKGVAYDSSADWFSLGCMLFKLLRGHSPFRQHKTKDKHEIDRMTLTMAVELPDSFSPELRSLLEGLLQRDVNRRLGCLGRGAQEVKESPFFRSLDWQMVFLQKYPPPLIPPRGEVNAADAFDIGSFDEEDTKGIKLLDSDQELYRNFPLTISERWQQEVAETVFDTINAETDRLEARKKAKNKQLGHEEDYALGKDCIMHGYMSKMGNPFLTQWQRRYFYLFPNRLEWRGEGEAPQSLLTMEEIQSVEETQIKERKCLLLKIRGGKQFILQCDSDPELVQWKKELRDAYREAQQLVQRVPKMKNKPRSPVVELSKVPLVQRGSANGLGSAGWGKLGSAGSGSAGSMTSKVYDPEQRKRMITGPQWWARCKQMNVLDSFINYYDSEKHAENAVIFLHGNATSSYLWRHVVPHIEPVARCIIPDLIGMGKSGKSGNGSYRLLDHYKYLTAWFELLNL
As to B1, the binding result in test [1] was “binds”.

B2: RlucII-GRK2 (GRK2 tagged at its N-terminus with RlucII) (protein)
chain: MTSKVYDPEQRKRMITGPQWWARCKQMNVLDSFINYYDSEKHAENAVIFLHGNATSSYLWRHVVPHIEPVARCIIPDLIGMGKSGKSGNGSYRLLDHYKYLTAWFELLNLPKKIIFVGHDWGAALAFHYSYEHQDKIKAIVHAESVVDVIESWDEWPDIEEDIALIKSEEGEKMVLENNFFVETVLPSKIMRKLEPEEFAAYLEPFKEKGEVRRPTLSWPREIPLVKGGKPDVVQIVRNYNAYLRASDDLPKMFIESDPGFFSNAIVEGAKKFPNTEFVKVKGLHFSQEDAPDEMGKYIKSFVERVLKNEQGGSGSGSGSMADLEAVLADVSYLMAMEKSKATPAARASKKILLPEPSIRSVMQKYLEDRGEVTFEKIFSQKLGYLLFRDFCLNHLEEARPLVEFYEEIKKYEKLETEEERVARSREIFDSYIMKELLACSHPFSKSATEHVQGHLGKKQVPPDLFQPYIEEICQNLRGDVFQKFIESDKFTRFCQWKNVELNIHLTMNDFSVHRIIGRGGFGEVYGCRKADTGKMYAMKCLDKKRIKMKQGETLALNERIMLSLVSTGDCPFIVCMSYAFHTPDKLSFILDLMNGGDLHYHLSQHGVFSEADMRFYAAEIILGLEHMHNRFVVYRDLKPANILLDEHGHVRISDLGLACDFSKKKPHASVGTHGYMAPEVLQKGVAYDSSADWFSLGCMLFKLLRGHSPFRQHKTKDKHEIDRMTLTMAVELPDSFSPELRSLLEGLLQRDVNRRLGCLGRGAQEVKESPFFRSLDWQMVFLQKYPPPLIPPRGEVNAADAFDIGSFDEEDTKGIKLLDSDQELYRNFPLTISERWQQEVAETVFDTINAETDRLEARKKAKNKQLGHEEDYALGKDCIMHGYMSKMGNPFLTQWQRRYFYLFPNRLEWRGEGEAPQSLLTMEEIQSVEETQIKERKCLLLKIRGGKQFILQCDSDPELVQWKKELRDAYREAQQLVQRVPKMKNKPRSPVVELSKVPLVQRGSANGL
In the case of B2, the binding result in test [2] is “binds”.
